Reference: PubChem BioAssay AID1259308 (NCATS, 2017)
In all, the deposit lists about 59,000 reagents; shown is an unselected part. Over the whole deposit, about 1,510 (2.6%) were called active. 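Calls use total luciferase alone and ignore viability, so some active siRNAs may act by altering cell number.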 Reagents against one gene are numbered here. Further read-outs or replicates are left out here.

Screen: 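Genes whose loss raises luciferase production in HEK293 cells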 (primary screen)
Cell system: human HEK293 embryonic kidney cells stably expressing firefly luciferase (HEK-CMV-Luc2-Hygro)
Reagents: single siRNA against human genes, 0.8 pmol siRNA per well
Duration: 72 h
Measured: 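Luciferase light (ONE-Glo) measured on one replicate plate set and viability (CellTiter-Glo) on the other, scaled to a negative control siRNA, with robust z-scores and luciferase per cell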
Reading the numbers: total luciferase, z-score and total luciferase, % of control: higher = more reporter protein produced
Hit rule: 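An siRNA counts as active if its total luciferase robust z-score exceeds 3; genes with two or more such siRNAs out of three were retested with fresh siRNAs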
Calls: active = raised luciferase; inactive = no rise

ALDOC (aldolase, fructose-bisphosphate C) #1 — total luciferase, z-score = -0.835; total luciferase, % of control = 65.3; Call = inactive
ALDOC (aldolase, fructose-bisphosphate C) #2 — total luciferase, z-score = 0.85; total luciferase, % of control = 98.8; Call = inactive
ALDOC (aldolase, fructose-bisphosphate C) #3 — total luciferase, z-score = 0.793; total luciferase, % of control = 97.7; Call = inactive
MLF2 (myeloid leukemia factor 2) #1 — total luciferase, z-score = -0.159; total luciferase, % of control = 78.7; Call = inactive
MLF2 (myeloid leukemia factor 2) #2 — total luciferase, z-score = 0.845; total luciferase, % of control = 98.7; Call = inactive
MLF2 (myeloid leukemia factor 2) #3 — total luciferase, z-score = -1.28; total luciferase, % of control = 56.4; Call = inactive
CD300C (CD300c molecule) #1 — total luciferase, z-score = 0.334; total luciferase, % of control = 88.5; Call = inactive
CD300C (CD300c molecule) #2 — total luciferase, z-score = -0.124; total luciferase, % of control = 79.4; Call = inactive
CD300C (CD300c molecule) #3 — total luciferase, z-score = -2.39; total luciferase, % of control = 34.4; Call = inactive
NKAPL (NFKB activating protein like) #1 — total luciferase, z-score = 1.33; total luciferase, % of control = 108; Call = inactive
NKAPL (NFKB activating protein like) #2 — total luciferase, z-score = -1.53; total luciferase, % of control = 51.5; Call = inactive
NKAPL (NFKB activating protein like) #3 — total luciferase, z-score = 0.151; total luciferase, % of control = 84.9; Call = inactive

Already shown: an excerpt of the list.
MLF2 (myeloid leukemia factor 2) #1 — total luciferase, z-score = -0.159; total luciferase, % of control = 78.7; Call = inactive
MLF2 (myeloid leukemia factor 2) #2 — total luciferase, z-score = 0.845; total luciferase, % of control = 98.7; Call = inactive

The listing continues:
ADIPOR2 (adiponectin receptor 2) #1 — total luciferase, z-score = 1.59; total luciferase, % of control = 114; Call = inactive
ADIPOR2 (adiponectin receptor 2) #2 — total luciferase, z-score = 2.48; total luciferase, % of control = 131; Call = inactive
ADIPOR2 (adiponectin receptor 2) #3 — total luciferase, z-score = 0.0535; total luciferase, % of control = 83; Call = inactive
HOXA1 (homeobox A1) #1 — total luciferase, z-score = -0.253; total luciferase, % of control = 76.9; Call = inactive
HOXA1 (homeobox A1) #2 — total luciferase, z-score = -0.103; total luciferase, % of control = 79.8; Call = inactive
HOXA1 (homeobox A1) #3 — total luciferase, z-score = -0.0751; total luciferase, % of control = 80.4; Call = inactive
DDX60 (DExD/H-box helicase 60) #1 — total luciferase, z-score = -0.193; total luciferase, % of control = 78; Call = inactive
DDX60 (DExD/H-box helicase 60) #2 — total luciferase, z-score = -1.15; total luciferase, % of control = 59; Call = inactive
DDX60 (DExD/H-box helicase 60) #3 — total luciferase, z-score = 0.0109; total luciferase, % of control = 82.1; Call = inactive
